From the supplement of paper PMC4683952
The other results are listed elsewhere or left out. Cut-off read from the data, not from the text of the source: active = 2 or more and inactive = the rest. Repeats in this data set agree poorly, so a single value says little.

What follows are compounds tested on Lgr5 (MarsCy1-Lgr5-EGFP, U2OS) (assay: cell-surface Lgr5 expression (SCi1 fluorescence, background-subtracted) relative to WT DMSO (fold of DMSO control); higher = more Lgr5 at the plasma membrane). Details: U2OS MarsCy1-Lgr5-EGFP stable; treatment time: overnight; library: ActiProbe-5K (TimTec); 25 µM.

cell-surface Lgr5 expression, inactive:
CSc1ccc(/C=N/n2cnnc2)cc1 1.18
Br.N=c1[nH]c(-c2ccc3c(c2)OCCO3)cs1 1.36
CCOC(=O)/C(C#N)=C/Nc1ccsn1 0.99
NCc1cc(C(F)(F)F)cc(C(F)(F)F)c1 1.26
CCCCc1ccc(/C=C(\C#N)C(N)=S)s1 0.964
Brc1ccc(Sc2ccc(Br)cc2)cc1 1.43
N#Cc1cc2c(nc1SCc1ccncc1)CCC2 1.14
FC(F)(F)Oc1ccc(Nc2nc3ccccc3o2)cc1 0.808
CCCc1[nH]nc2c1C1(CCOC1C)C(C#N)=C(N)O2 (stereo unspecified) 1.07
O=C1C2CC=C(Cl)CC2C(=O)N1c1nnc[nH]1 (stereo unspecified) 1.1
CS(=O)(=O)Nc1ccc(Br)cn1 1.23
CCSc1ccc(Sc2ccc(SCC)s2)s1 1.49
Fc1cccc(Nc2nc(Cl)nc(Cl)n2)c1 1.16
C#CC[N+](C)(C)Cc1ccccc1.[Br-] 1.61
O=C1C2C3C=CC(C3)C2C(=O)N1c1ccc(F)cc1 (stereo unspecified) 1.15
C(S\C(=C(\C#N)C#N)NCC=C)c1ccccn1 1.33
Clc1cc(-c2ccccc2)nc(-c2ccc(Br)cc2)n1 1.04
Cn1nnc(Sc2ccc([N+](=O)[O-])cc2)n1 1.18
CC(C)C1=C2CCCCC2NC(=O)N1 (stereo unspecified) 1.18
c1cc2c(cc1C1=Nn3cnnc3SC1)OCCO2 1.16
O=[N+]([O-])c1cc(Br)cc2cc[nH]c12 1.22
[O-]/[N+](=N\c1ccc(Cl)cc1)c1ccc(Cl)cc1 1.23
O=C(CCC1CCCC1)N1CCc2cc(Br)ccc21 1.27
c1ccc(N2CCN(CN3CCN(c4ccccc4)CC3)CC2)cc1 1.15
CN(C)CCNC(=O)c1scc2c1CCCC2 0.998
c1ccc(OCCSc2nnc3[nH]cnn23)cc1 0.81
O=C(Nc1nnc(C2CCCC2)s1)c1ccco1 1.12
Nc1nnc(SCC(=O)N2CCCC2)s1 1
Cn1cnc([N+](=O)[O-])c1N1CCOCC1 1.23
Nn1c(S)nnc1CO 1.13
O=C1CSc2ccc(NC(=O)C3CCCC3)cc2N1 1.28
O=C1OC(C2OC(=O)c3ccccc32)c2ccccc21 (stereo unspecified) 1.33
N/N=C1/CCCc2c1[nH]c1ccc(C(F)(F)F)cc21 1.15
COc1ccc2ccc(=O)oc2c1OC 0.989
COc1sc(S(C)(=O)=O)cc1S(C)(=O)=O 1.01
CC1(C)OC(=O)N(CCCN2C(=O)OC(C)(C)C2(C)O)C1(C)O (stereo unspecified) 1.11
O=S(=O)(NCC1CCCO1)c1ccccc1 (stereo unspecified) 1.16
CN(C)S(=O)(=O)N1CCN(c2nc3ccccc3o2)CC1 1.28
COc1cc(-c2nnc(CSc3ncccn3)o2)cc(OC)c1OC 1.44
O=S(=O)(Nc1ncccn1)c1ccccc1 1.13
N#CCNS(=O)(=O)c1ccc(Br)cc1 1.05
CCn1c(N)c(C(N)=O)sc1=S 1.12
Nc1ccc2[nH]c(C(F)(F)F)nc2c1 1.08
O=c1[nH]nc2nc(-c3ccccc3)cnn12 1.33
Sc1nc2ccccc2c2c1CCC2 0.924
CC1(C)C(c2nc(-c3ccc(Br)cc3)no2)C1(C)C 1.14
Nc1cc[n+](Cc2ccccc2)cc1.[Br-] 1.01
CC(C(=O)n1cc(Cl)cn1)n1cc([N+](=O)[O-])cn1 (stereo unspecified) 0.999
Cn1c(=O)[nH]c2c(N)nccc21 0.922
N#CC1=C(N)SC(N)=C(C#N)C1c1cccs1 1.43
CN(C)/C=C1\C(=O)N(c2nc3ccccc3s2)N=C1C(F)(F)F 1.3
Nc1c(Cl)nsc1Cl 1.05
N#CC1=C(N)C(C#N)(C#N)C2=CCCC2C12CCCCC2 (stereo unspecified) 0.942
C=CCOc1nc2c(c(=O)n(C)c(=O)n2C)n1C 1.37
COC(=O)C(Nc1nccs1)(OC)C(F)(F)F (stereo unspecified) 1.03
C=CCn1c(-c2cccnc2)n[nH]c1=S 1.23
Cc1ccc(C2C(C(=O)c3cccs3)=C(O)C(=O)N2CCN(C)C)o1 (stereo unspecified) 1.1
CN(C)C(=O)CSc1nnc(N)s1 1.18
C/C(=C\c1cccs1)[N+](=O)[O-] 1.1
COc1cc2c(cc1OC)C1(CCN(C)CC1)OCC2 1.05
Cc1cc(C)n(CCc2nn[nH]n2)n1 1.23
N/N=C1/C2CN3CCN(C2)CC1(Cc1ccc(O)cc1)C3 1.23
Cc1cc(C)c(C)c(S(=O)(=O)NCC2CCCO2)c1C (stereo unspecified) 1.21
O=C(O)C1CSC(C2CC=CCC2)N1 (stereo unspecified) 1.03
CCC1CCC2(CC1)N[C@H](C(=O)O)CS2 (stereo partly specified) 1.16
CCSc1sc(C(C)(CC)c2cc(C(C)=O)c(SCC)s2)cc1C(C)=O 1.15
Clc1ccc(Nc2nc3nonc3nc2Nc2ccc(Cl)c(Cl)c2)cc1Cl 1.29
C=12[C@H]([C@@H]([C@](C(=C2C#N)N)(C#N)C#N)c2cnccc2)(C2N(C(CC2)C1)C) (stereo partly specified) 1.28
OCCN(/C=N\C1=NN(c2ccccc2)CC1)CCO 1.26
Brc1ccc(-c2noc(C3CCCCC3)n2)o1 1.21
O=[N+]([O-])c1ccc2nc(Nc3ccc(Cl)c(Cl)c3)c(Nc3ccc(Cl)c(Cl)c3)nc2c1 1.33
N#Cc1ccc(Br)o1 1.08
Oc1ccc(/N=N\c2nccs2)c(O)c1 0.722
COc1cc(CC(C)Br)cc2c1OCO2 (stereo unspecified) 1.01
Cc1cc(NC2(C(F)(F)F)N=C3SCCN3C2=O)no1 (stereo unspecified) 1.06
CC(C)(C)S(=O)(=O)c1ccc(S(=O)(=O)C(C)(C)C)s1 1.3
C#CCSc1nc(N)c(C#N)cc1C#N 1.31
O=[N+]([O-])c1cc2c(cc1-n1ccnc1)OCCO2 1.05
CCOC(=O)c1c(N)sc(C)c1C 1.09
O=c1[nH]nc(CSc2ccc([N+](=O)[O-])cc2)[nH]1 1.03
O=S(=O)(c1ccccc1)c1cccs1 1.14
CCN(CC)C(=S)NC1CCCCC1 1.38
O=c1cn[nH]c(=S)n1/N=C/c1c(Cl)ccc(Cl)c1Cl 0.995
N#Cc1c(C(F)(F)F)cc(C2CC2)nc1SCc1cccc(F)c1 0.886
Cc1c(C#N)c(N)n(CCC2=CCCCC2)c1C 1.27
CNc1c([N+](=O)[O-])cc2c(c1[N+](=O)[O-])n(C)c(=O)n2C 1.04
O=c1cc(O)c2sc3nc4c(c(C(F)F)c3c2[nH]1)CCCC4 1.36
N#Cc1csc2c1CCCC2 1.16
CN1C(=O)C(CCO)NC1=S (stereo unspecified) 1.07
c1ccc(C2C3=C(Nc4ncnn42)c2ccccc2CCC3)cc1 (stereo unspecified) 1.57
Cc1nonc1-c1ccnc2nnc(N)n12 1.03
CC(C)(C)c1nn2cnnc2[nH]c1=O 0.94
O=C(O)c1ccc(Br)o1 0.965
O=S(=O)(Nc1ncccn1)c1ccc(Cl)cc1 0.978
C/N=C1\S/C(=C/c2ccc(C)s2)C(=O)N1C 1.28
Cc1cc(OCc2ccc3nsnc3c2)c(C(C)C)cc1-n1cnnn1 0.896
Sc1nnc(Nc2ccccc2)n1-c1ccccc1 1.11
O=C1NC2(Nc3ccccc31)C(=O)Nc1ccccc12 (stereo unspecified) 1.11
CCN(CC)C1(CN)CCCCC1 0.992
O=C1/C(=C/c2ccncc2)SC(=S)N1C1CCS(=O)(=O)C1 (stereo unspecified) 1.68
CN(C)c1c([N+](=O)[O-])cc2[nH]c(=O)[nH]c2c1[N+](=O)[O-] 1.84
COc1ccc(C2NN=C(c3ccc(C)cc3)S2)cc1 (stereo unspecified) 0.987
O=S(=O)(NCc1ccc2c(c1)OCO2)c1ccc2oc3ccccc3c2c1 1.28
CC1(O)OC2(C)CCC1(C)OC2(C)O (stereo unspecified) 1.23
Clc1ccc(-c2nc3sc(-c4ccc(Cl)cc4Cl)nc3s2)c(Cl)c1 1.22
Nc1ccc(S(=O)(=O)N2CCCC2)cc1 1.11
CNc1sc2c(O)cc(=O)[nH]c2c1C#N 1.11
CCn1ncc(Cl)c1C(=O)NC1C(=O)N2C(C(=O)O)=C(COC(C)=O)CSC12 (stereo unspecified) 1.26
C(=N/c1nccs1)/c1ccco1 0.892
C1(C(\C=C(/Cl)Cl)C1C(=O)O)(C)C (stereo unspecified) 1.32
C(=C/c1nnc2ccc3ccccc3n12)/c1ccco1 1.16

A section from further up, as a working copy:
cell-surface Lgr5 expression, inactive:
Nc1nnc(SCC(=O)N2CCCC2)s1 1
Cn1cnc([N+](=O)[O-])c1N1CCOCC1 1.23
Nn1c(S)nnc1CO 1.13
O=C1CSc2ccc(NC(=O)C3CCCC3)cc2N1 1.28
O=C1OC(C2OC(=O)c3ccccc32)c2ccccc21 (stereo unspecified) 1.33
N/N=C1/CCCc2c1[nH]c1ccc(C(F)(F)F)cc21 1.15
COc1ccc2ccc(=O)oc2c1OC 0.989
COc1sc(S(C)(=O)=O)cc1S(C)(=O)=O 1.01
CC1(C)OC(=O)N(CCCN2C(=O)OC(C)(C)C2(C)O)C1(C)O (stereo unspecified) 1.11
O=S(=O)(NCC1CCCO1)c1ccccc1 (stereo unspecified) 1.16
CN(C)S(=O)(=O)N1CCN(c2nc3ccccc3o2)CC1 1.28
COc1cc(-c2nnc(CSc3ncccn3)o2)cc(OC)c1OC 1.44
O=S(=O)(Nc1ncccn1)c1ccccc1 1.13
N#CCNS(=O)(=O)c1ccc(Br)cc1 1.05
CCn1c(N)c(C(N)=O)sc1=S 1.12
Nc1ccc2[nH]c(C(F)(F)F)nc2c1 1.08
O=c1[nH]nc2nc(-c3ccccc3)cnn12 1.33
Sc1nc2ccccc2c2c1CCC2 0.924
CC1(C)C(c2nc(-c3ccc(Br)cc3)no2)C1(C)C 1.14
Nc1cc[n+](Cc2ccccc2)cc1.[Br-] 1.01
CC(C(=O)n1cc(Cl)cn1)n1cc([N+](=O)[O-])cn1 (stereo unspecified) 0.999
Cn1c(=O)[nH]c2c(N)nccc21 0.922
N#CC1=C(N)SC(N)=C(C#N)C1c1cccs1 1.43
CN(C)/C=C1\C(=O)N(c2nc3ccccc3s2)N=C1C(F)(F)F 1.3
Nc1c(Cl)nsc1Cl 1.05

Part of the list above in order of molar mass, smallest number first.
cell-surface Lgr5 expression, inactive:
Cc1cc(C)n(CCc2nn[nH]n2)n1 1.23
CCCCc1ccc(/C=C(\C#N)C(N)=S)s1 0.964
O=c1cc(O)c2sc3nc4c(c(C(F)F)c3c2[nH]1)CCCC4 1.36
